According to patent publication US10072044B2, “Modified kisspeptin peptides and uses thereof” (Yeda Research and Development Co. Ltd., priority 2012, dated 2018):
At least one structure is not confirmed: it was looked up by name or label, or the drawing left a doubt.

Test system: MK-801 treated C57BL/6J mice
Assay: PPI in the MK-801 drug-induced model of schizophrenia
Assay type: in vivo, mouse
Settings: 0.375 mg/kg i.p. with MK-801 (FIG. 4B)
Description: MK-801 (Sigma) was used at 0.1 mg/kg and administered 15 min prior to the PPI analysis.
Acoustic startle response testing was performed within startle chambers purchased from Med Associates, Inc. (Med Associates, St. Albans, Vt., USA), as described in Cardon et al., 2010. During a period of acclimation, a 65-decibel (dB) background noise was presented for 5-min, and continued throughout the test session. All sessions for testing of acoustic startle response consisted of startle trials (pulse alone, 40-milliseconds (ms), 120-dB), prepulse trials (prepulse 20-ms, 69, 73, 78, or 81 dB followed by a [100-ms delay] pulse), and no-stimulus trials. All sessions were presented in pseudo-random order. The average time between trials was 15 seconds (range 12-30 seconds). Startle response was calculated from the reaction to the first pulse-alone trial.
PPI was calculated as: % PPI=100−{[(startle response for prepulse+pulse)/(startle response for pulse-alone)]×100}. Reduced PPI indicates schizophrenia-related behavior.
MK-801 (an antagonist of the N-methyl-D-aspartate (NMDA) receptor channel) acts as a psychomimetic agent, inducing psychotic symptoms that mimic the cognitive impairment and behavioral abnormalities associated with schizophrenia.
The neurotransmitter imbalance induced by MK-801 causes PPI dysfunction, one of the characteristic features of patients with schizophrenia. […]

Cc1cc2c(s1)Nc1ccccc1N=C2N1CCN(C)CC1 [Olanzapine]
PPI in MK-801 treated mice: elevated PPI in the MK-801 treated mice
